# Results: PubChem BioAssay AID504467 (National Center for Advancing Translational Sciences (NCATS), 2011)
# Hit rate of the full screen: of about 330,000 compounds, about 7,700 (2.3%) were called active. The inconclusive results got no clear call from the source; some entries with a clear call stand among them for comparison. The call rests on the fitted dose curve; in most records, active means well fitted inhibition curve with a large enough effect; inconclusive means small, poorly fitted or top-dose-only effect, or effect the other way; inactive means flat fitted curve, though single readings scatter. Potencies of inconclusive entries are doubtful fits and often do not repeat.
# Experiment: qHTS screen for small molecules that inhibit ELG1-dependent DNA repair in human embryonic kidney (HEK293T) cells expressing luciferase-tagged ELG1; further: nearly all actives have a fitted effect of over 55% in size
# Conditions: HEK293T ELG1-luciferase reporter, luminescence, 16 h, DNA damage induced by 5-fluorouridine; activity change, negative = inhibition: at 46.1 µM (top of the series)
# In short: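 Cells (2,000 per well) received 5-fluorouridine plus test compound or DMSO and were incubated 16 hr at 37 °C, 5% CO2. Luciferase activity was read by luminescence 30 min after ONE-Glo addition; signal suppression marked inhibition of damage-induced ELG1 function.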
# On the % scale 0 is the no-effect control and ±100 the full control effect; potency means the concentration at half of the fitted maximal effect.
SMILES,"activity change, negative = inhibition",Potency
COC(=O)c1ccc(CSc2nc3ccccc3c(=O)n2C)o1,inactive: 2.62%,–
COc1ccc(CC(=O)Oc2cc(C)[nH]c(=O)c2[N+](=O)[O-])cc1,–,"inconclusive: 25.9 µM [activator, partial curve, poor fit]"
CN(C)CCCN(C(=O)c1ccc2c(c1)CCCC2)c1nc2cc3c(cc2s1)OCO3,inactive: -8.74%,–
Cc1ccc(-c2nn3c(C)nnc3s2)cc1NC(=O)CSc1ccc(Cl)cc1,–,active: 20.6 µM
Cc1cc(Cl)ccc1OCC(=O)N(Cc1cccs1)C1CCS(=O)(=O)C1 (centres undefined),inactive: -4.32%,–
O=C(Nc1nc(-c2ccccn2)cs1)c1cccc(-n2cnnn2)c1,–,"inconclusive: 3.26 µM [inhibitor, partial curve, poor fit]"
Cn1c(=O)cc(OCCCC(=O)NCc2ccco2)c2ccccc21,–,"inconclusive: 10 µM [activator, partial curve, poor fit]"
COc1ccc(-c2nn(-c3ccccc3)cc2/C=C(\C#N)C(N)=O)cc1[N+](=O)[O-],–,"inconclusive: 5.17 µM [inhibitor, full curve, poor fit]"
O=S(=O)(c1cccc(F)c1)N1CCCN(c2ccc(C(F)(F)F)cn2)CC1,–,"inconclusive: 29.1 µM [inhibitor, single point]"
C=CCCN([C@H](CO)Cc1ccccc1)S(=O)(=O)c1ccccc1Br,–,"inconclusive: 18.3 µM [activator, single point]"
CC1=C(C(=O)Nc2ccccn2)C(c2ccc(Cl)cc2Cl)NC(=S)N1 (centres undefined),–,"inconclusive: 9.2 µM [activator, partial curve]"
COc1ccc2cc(CN(CCc3ccccc3)Cc3nnnn3CC3CCCO3)c(=O)[nH]c2c1 (centres undefined),–,"inconclusive: 29.1 µM [inhibitor, single point]"
O=C(CSc1n[nH]c(=O)[nH]c1=O)NCC1CCCCC1,inactive: 0.215%,–
COc1cc2c(cc1OC)CN(C(=O)COc1ccccc1C#N)CC2,–,"inconclusive: 25.9 µM [inhibitor, single point]"
CCCCn1c(SC(C)C(=O)NCC2CCCO2)nc2cc(C(=O)OC)ccc2c1=O (centres undefined),–,"inconclusive: 18.3 µM [inhibitor, single point]"
Cc1onc(-c2c(Cl)cccc2Cl)c1C(=O)N1CCc2ccccc2C1,inactive: -10.3%,–
CN(Cc1ccccc1)C(=O)c1ccccc1NC(=O)c1ccco1,–,"inconclusive: 6.51 µM [activator, partial curve, poor fit]"
Cc1ccc(O)c(NC(=O)c2noc3c2CCc2ccccc2-3)c1,–,"inconclusive: 14.6 µM [activator, partial curve]"
Cc1nc(SCC(=O)N2CCOCC2)c2c(C)c(C)sc2n1,–,"inconclusive: 29.1 µM [inhibitor, single point]"

# For reference, part of the list above.
SMILES,"activity change, negative = inhibition",Potency
Cc1cc(Cl)ccc1OCC(=O)N(Cc1cccs1)C1CCS(=O)(=O)C1 (centres undefined),inactive: -4.32%,–
O=C(Nc1nc(-c2ccccn2)cs1)c1cccc(-n2cnnn2)c1,–,"inconclusive: 3.26 µM [inhibitor, partial curve, poor fit]"
